# Laboratory results taken from PubChem BioAssay AID1508600 (Functional Genomics Laboratory (NCATS/FGL), 2020).
# Out of some 53,000 sequences screened, about 3,700 (7%) were called active.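 How the source made its calls: active means gene knockdowns whose robust z-score for IL-1 alpha signal is at least 2 or at most -2, so actives lie on both sides; inactive means the rest.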 Some of the results follow.
# Test: Components of the Cytosolic LPS Sensing Pathway: Gene Identification via Genome-wide siRNA Screen;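 further: robust z of the log signal after scaling to non-targeting control siRNA wells of the plate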
# Conditions: RAW264.7 macrophages, IL-1a HTRF, actives lie on both sides, screened at 100 nM (by protocol), cells primed 5 h with Pam3CSK4 first
# How it was run: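 RAW264.7 mouse macrophages reverse-transfected with single siRNAs (100 nM final) for 48h, primed with Pam3CSK4 for 5 hours, then transfected with LipidA for 24 hour. Supernatant IL-1a read by HTRF; values normalized to negative-control median, log-transformed robust z-scores.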
row,Sequence,z-score
1,GGAGGAAGAAAUAAAUUACTT against Iyd,inactive: 0.642
2,GCGGGACUCAAACAAAAGUTT against Trip4,inactive: 0.295
3,CCAUUUAAGUGUGUGUUAATT against Rbmx,inactive: 0.475
4,GGAAUUUGCUACGAAUCUCTT against Ppfia3,inactive: -0.722
5,GGCCAUUAUUCGUGAGUUGTT against Armc10,active: 2.11
6,GCAAGUAUUAAGUAUGACGTT against Vps13c,inactive: 0.15
7,GCAUUUGUGUAACCACAAATT against Pde4dip,inactive: -0.522
8,GGAAAAAAGACAUAAGUCATT against Vmn2r37,inactive: -1.47
9,CCAUCAAUUGGAAAUCUUUTT against Tnn,inactive: -1.01
10,GGUACUUUAAUGCUGAGGATT against Wdr74,inactive: -1.62
11,GGAAGUGAUCCUUAAAAGATT against Ebf1,inactive: -0.207
12,GGAAAUGUGUCCUUGACCATT against Timd2,inactive: -0.128
13,GGCACAUGAUCCUUAAUUUTT against Pfkfb3,inactive: 0.0397
14,GCUUCAUAACACAAACGGATT against Zfp184,inactive: 0.295
15,CCCUCAUUGUAACCUUAACTT against Olfr792,active: -2.27
16,GGAGAUCAGUCCUACAAAGTT against Ralbp1,inactive: 1.44
17,GGUGGUAUUCUGUGGACCATT against Mrpl48,inactive: -0.819
18,CGGCACCAGUUACAAAGUGTT against Cpa2,inactive: -0.239
19,GCAAACUGCCCUCUUUGUGTT against Olfr1024,active: 2.54
20,GGUGGUGUUUCUGAACCCATT against Capn5,inactive: -0.882
21,GGUGGAUGGAUCACUGAGUTT against B230325K18Rik,inactive: -0.347
22,CCUUAUCCAAGAGUAGGGCTT against Xkr4,inactive: 0.714
23,GGACCUUGGCUUUAAGAUGTT against Matn1,inactive: -0.261
24,GCCUAAAUUCACAUGGCAGTT against Eef1akmt1,inactive: 1.32
25,GGUCUUCGCCACAUGGAAATT against Crkl,inactive: 0.436
26,GGGACUUUAAAAAAGACUCTT against Olfr1366,active: 2.1
27,CCUUUAGCCCUCAAUAUUCTT against Macrod2,inactive: 0.642
28,CCGACUGUUAAAGUGGUGUTT against Arih1,inactive: 0.608
29,GGAAAUGCUACUGCUUGGATT against 1700030K09Rik,inactive: 1.2

# Two entries from above, reformatted.
row	Sequence	z-score
10	GGUACUUUAAUGCUGAGGATT against Wdr74	inactive: -1.62
27	CCUUUAGCCCUCAAUAUUCTT against Macrod2	inactive: 0.642
